Assay results reported in PMC6521077.
These are yes or no findings as the source states them, for the method shown. In cells and extracts the contact can be indirect. Some binding calls cover weakened binding; strength is not graded here.

By UniProt entry, the sequences of proteins in these tests, tags left out.
UniProt Q9Y230: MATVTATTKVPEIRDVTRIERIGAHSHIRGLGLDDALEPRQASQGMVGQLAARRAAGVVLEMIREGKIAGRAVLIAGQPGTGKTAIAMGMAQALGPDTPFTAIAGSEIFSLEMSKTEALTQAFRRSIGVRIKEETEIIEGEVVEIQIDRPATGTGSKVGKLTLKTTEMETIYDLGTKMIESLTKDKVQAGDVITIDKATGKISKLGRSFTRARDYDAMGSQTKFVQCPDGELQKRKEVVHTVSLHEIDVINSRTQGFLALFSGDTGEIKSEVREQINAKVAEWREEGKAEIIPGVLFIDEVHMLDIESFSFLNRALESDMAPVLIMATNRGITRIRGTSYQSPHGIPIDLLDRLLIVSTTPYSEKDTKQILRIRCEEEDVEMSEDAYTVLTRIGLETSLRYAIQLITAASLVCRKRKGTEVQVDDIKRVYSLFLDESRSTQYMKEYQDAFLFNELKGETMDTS
UniProt Q9Y265: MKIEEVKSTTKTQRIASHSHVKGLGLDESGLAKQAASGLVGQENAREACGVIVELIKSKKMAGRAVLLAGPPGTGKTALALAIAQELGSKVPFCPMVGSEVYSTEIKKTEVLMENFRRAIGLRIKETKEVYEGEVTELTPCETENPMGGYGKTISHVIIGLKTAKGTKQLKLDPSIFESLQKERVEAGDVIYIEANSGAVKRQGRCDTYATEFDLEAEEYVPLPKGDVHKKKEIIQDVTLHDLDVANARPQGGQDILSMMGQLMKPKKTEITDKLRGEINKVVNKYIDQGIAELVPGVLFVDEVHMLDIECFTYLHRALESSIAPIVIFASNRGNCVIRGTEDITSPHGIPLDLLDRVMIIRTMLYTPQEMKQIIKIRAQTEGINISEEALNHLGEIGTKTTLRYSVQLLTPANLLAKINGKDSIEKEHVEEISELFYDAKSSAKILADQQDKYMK
UniProt P18272: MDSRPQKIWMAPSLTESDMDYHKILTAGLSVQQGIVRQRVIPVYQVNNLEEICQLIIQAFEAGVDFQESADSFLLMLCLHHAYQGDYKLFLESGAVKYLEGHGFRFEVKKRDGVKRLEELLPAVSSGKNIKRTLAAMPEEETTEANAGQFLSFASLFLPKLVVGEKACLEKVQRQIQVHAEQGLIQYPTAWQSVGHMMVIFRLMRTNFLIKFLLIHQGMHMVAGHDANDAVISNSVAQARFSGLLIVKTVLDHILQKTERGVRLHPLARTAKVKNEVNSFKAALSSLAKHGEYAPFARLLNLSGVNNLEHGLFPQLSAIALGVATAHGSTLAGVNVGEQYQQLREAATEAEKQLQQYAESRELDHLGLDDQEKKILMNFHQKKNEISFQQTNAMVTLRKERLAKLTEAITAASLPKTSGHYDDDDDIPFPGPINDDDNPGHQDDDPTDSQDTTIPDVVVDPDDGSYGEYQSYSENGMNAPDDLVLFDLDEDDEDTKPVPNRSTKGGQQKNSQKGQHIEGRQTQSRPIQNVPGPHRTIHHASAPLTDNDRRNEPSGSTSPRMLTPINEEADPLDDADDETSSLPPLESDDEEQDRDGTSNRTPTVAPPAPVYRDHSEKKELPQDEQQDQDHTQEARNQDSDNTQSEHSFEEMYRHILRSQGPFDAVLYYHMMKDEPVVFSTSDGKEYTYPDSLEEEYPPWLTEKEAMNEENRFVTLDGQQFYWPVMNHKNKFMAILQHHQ

Legend:
Assay in all cases: co-IP
[1] = target: HA-RUVBL2 (pCDNA-3xHA-Reptin) (UniProt Q9Y230)
[2] = target: FLAG-RUVBL1 (pCDNA-3xFLAG-Pontin) (UniProt Q9Y265)
[3] = target: HA-tagged Ebola virus nucleoprotein (pCAGGS-HA-EBOV-NP) (Ebola virus (EBOV)) (UniProt P18272)

With “V5-tagged Ebola virus nucleoprotein (pCAGGS-NP-V5) (from UniProt P18272 1-739)” the binding [1] was “binds”.

In the case of “HA-tagged Ebola virus nucleoprotein (pCAGGS-HA-EBOV-NP) (from UniProt P18272 1-739)”, the binding [2] is reported as “binds”.

“FLAG-RUVBL1 (pCDNA-3xFLAG-Pontin) (from UniProt Q9Y265 1-456)” was tested, and the binding [3] was “binds”.
